Reference: US20160089464A1, “MALODOR REDUCTION COMPOSITIONS” (The Procter & Gamble Company, priority 2014, published 2016)

Assay: Comment Code material properties: vapor pressure, ClogP, probability of ingredient color instability, odor detection threshold, melamine formaldehyde PMC headspace response ratio and leakage, liquid dish neat product liquid-air partition coefficient
Assay type: physicochemical
Conditions: Table 1 materials; each letter of the code is one property class (vapor pressure, ClogP, color instability, odor detection threshold, PMC headspace ratio, PMC leakage, liquid dish liquid-air partition coefficient)

O=C(c1ccccc1)c1ccccc1 [Material 655]
Comment Code: DEFHK
